In all, about 33,000 sequences were measured (“E-score (-0.5 to 0.5)”: median about -0.016, highest 2% from about 0.3 on). Some of the results follow.

In the test the target is T1, Yer184c (UniProt P39961).
T1 sequence: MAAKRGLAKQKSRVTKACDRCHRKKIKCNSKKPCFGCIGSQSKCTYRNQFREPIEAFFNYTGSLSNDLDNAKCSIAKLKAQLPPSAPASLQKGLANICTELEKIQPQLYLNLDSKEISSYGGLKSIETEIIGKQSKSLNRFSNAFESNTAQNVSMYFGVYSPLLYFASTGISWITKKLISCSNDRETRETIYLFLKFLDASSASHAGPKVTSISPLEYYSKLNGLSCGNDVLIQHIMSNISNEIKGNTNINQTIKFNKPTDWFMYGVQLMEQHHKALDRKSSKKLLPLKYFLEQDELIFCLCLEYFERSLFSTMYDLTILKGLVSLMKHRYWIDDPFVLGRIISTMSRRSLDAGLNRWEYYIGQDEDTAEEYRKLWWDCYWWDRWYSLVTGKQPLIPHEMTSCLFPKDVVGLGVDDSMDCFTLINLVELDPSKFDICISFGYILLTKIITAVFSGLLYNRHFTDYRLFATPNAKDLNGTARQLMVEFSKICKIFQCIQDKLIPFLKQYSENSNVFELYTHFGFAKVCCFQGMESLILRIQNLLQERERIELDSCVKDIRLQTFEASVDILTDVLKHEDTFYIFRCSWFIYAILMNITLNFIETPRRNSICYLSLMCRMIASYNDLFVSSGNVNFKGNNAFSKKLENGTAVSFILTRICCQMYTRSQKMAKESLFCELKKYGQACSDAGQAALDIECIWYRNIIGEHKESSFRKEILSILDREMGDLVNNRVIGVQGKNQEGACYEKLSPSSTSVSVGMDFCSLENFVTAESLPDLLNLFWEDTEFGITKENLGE
Nature of the test: PBM E-score (8-mer binding enrichment) (E-score (-0.5 to 0.5)); higher = stronger / more preferred TF binding. Particulars: protein concentration: 100 nM; construct: GST-full length. The procedure, abridged: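 PURExpress in vitro transcription/translation supplied GST-tagged yeast transcription factors, either full-length or DNA-binding domain. Applied at about 100-200 nM to universal all-10-mer Agilent arrays double-stranded by primer extension, the bound protein was detected with fluorescent anti-GST. E-scores, modified Wilcoxon-Mann-Whitney statistics, were given by the Universal PBM Analysis Suite to ungapped eight-base words pooled with their reverse complements after masliner normalisation.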
For the sequence GATTTTTA, the “PBM E-score” value was 0.161. For the sequence GATAGCCC, the “PBM E-score” value was -0.0885. AACGTGCA: the “PBM E-score” value is -0.168.

AGCACTAG: the “PBM E-score” value is -0.0941. Regarding GTTCATCA, the “PBM E-score” value worked out at 0.027. Consider GCAGATAC, for which the “PBM E-score” value is -0.00051. In the case of CTGATATA, the “PBM E-score” value worked out at 0.138.

With CTGCGAAA, the “PBM E-score” value was 0.00134. For ACGACTCT, the “PBM E-score” value is -0.146. For the sequence CGATCACC, the “PBM E-score” value was -0.0384. On to AGCTGACT, for which the “PBM E-score” value is 0.0726. With CTGTAGTA, the “PBM E-score” value was found to be 0.149. As for ATGGAGTC, the figure is -0.0451; as for GAACTGCC, -0.0192; as for GACCGATA, 0.0857.

For ATCTGCGA, the “PBM E-score” value is -0.141.

Consider CCCGATCG, for which the “PBM E-score” value worked out at 0.0619. As for ACGCAACT, the “PBM E-score” value was 0.0668. As for CTTGGATC, the figure is -0.0713; as for CGGTGGAA, -0.0704; as for GAAGATAA, 0.261. As to AACTTAAG, the “PBM E-score” value was 0.0848.

CAAGTCAG: the “PBM E-score” value was -0.109. As for AGGGAAAG, the figure is -0.114; as for CACATTAG, -0.177. On to ATTGCTAA, for which the “PBM E-score” value was 0.0939. For CGGAACTA, the “PBM E-score” value came out at 0.414. Take AGACGACT: the “PBM E-score” value was -0.0372. As for GGATATCC, the figure is 0.203. As for GAATATCC, the figure is 0.0955. As to GATCCGCC, the “PBM E-score” value was determined as 0.0797. Take AGGGAGGA: the “PBM E-score” value was -0.251.

For the sequence ACTGTGGA, the “PBM E-score” value was -0.198. As to ATTCCCTG, the “PBM E-score” value was -0.022. Consider CGCCTGAC, for which the “PBM E-score” value was -0.07. With GTCGAGCA, the “PBM E-score” value was -0.234.

With GTAGCTAC, the “PBM E-score” value is -0.0667.

Turning to AGCAGTAG, the “PBM E-score” value was -0.161. As for CCGCCTAG, the “PBM E-score” value was -0.223. Regarding AATGGTCC, the “PBM E-score” value was 0.131. As for AGACCAGA, the figure is -0.073.

With AAGCGCAA, the “PBM E-score” value was found to be 0.114. AACGTTGG: the “PBM E-score” value is -0.0563. Turning to AGGAGACT, the “PBM E-score” value was -0.348. CACGCTCA: the “PBM E-score” value is -0.00869. As for CGTGCGCC, the figure is 0.0367; as for ATGTGCGA, -0.122. As for GCGGATAC, the figure is 0.205; as for ATTGGTCC, 0.0814.

With CACCAAGA, the “PBM E-score” value is -0.0152.

ATGGCGGA: the “PBM E-score” value is 0.0828. As for GGGTAGGA, the figure is -0.0324; as for CTAAAGGA, 0.0788; as for CTCCACAA, -0.017.

On to CCGAACGG, for which the “PBM E-score” value amounted to 0.325. As for GCCCAAAA, the “PBM E-score” value worked out at 0.155.

Consider ATTTTTTG, for which the “PBM E-score” value amounted to 0.146. On to AGTGGCAA, for which the “PBM E-score” value was 0.0115. As to ATAAGTCG, the “PBM E-score” value was -0.0353.

With AACCCTCC, the “PBM E-score” value was -0.239. For CAGCTCGC, the “PBM E-score” value was -0.0341. Consider AAAGAGCT, for which the “PBM E-score” value was -0.0208. For AGTTGAAT, the “PBM E-score” value is 0.136. As for AATTTCTC, the “PBM E-score” value was 0.115. Take TCCACCAA: the “PBM E-score” value was -0.0675. With ATGGACTG, the “PBM E-score” value was -0.129. For the sequence CTGAAAGC, the “PBM E-score” value is 0.0737. With GCAAGCGA, the “PBM E-score” value is -0.00686. AACCAAGA: the “PBM E-score” value came to 0.134. Consider AAGGGATA, for which the “PBM E-score” value is -0.0168.

Turning to CGACAACC, the “PBM E-score” value was -0.12. GAAATTTC: the “PBM E-score” value was -0.0278. For the sequence AGGACCGC, the “PBM E-score” value worked out at 0.0318. Turning to GAGTACTA, the “PBM E-score” value turned out to be 0.177.

Turning to AGCTATAG, the “PBM E-score” value is -0.131. On to CGACTACA, for which the “PBM E-score” value is -0.0829. As to AGCAAAGA, the “PBM E-score” value was -0.0138. As for GGGGGTAC, the figure is -0.221; as for ATTGCTGG, -0.0522.

Take ACGTCTTG: the “PBM E-score” value is -0.0662. As for TATCCACA, the figure is 0.0788; as for CTATGGAC, -0.0818. As for AGTTTCCA, the figure is 0.111; as for CGGGCTGC, 0.0615.

As to CTGGCTAC, the “PBM E-score” value is -0.13. As for GATTTATA, the figure is 0.297; as for AACCCTGC, -0.247. As for CACATATG, the figure is -0.165.

In the case of ACAATCCT, the “PBM E-score” value is 0.0829. As for ATGTGTCA, the figure is -0.0277.

As to CGTAGCTA, the “PBM E-score” value is -0.137. With AATAATCC, the “PBM E-score” value was determined as 0.184. As to GTACCTAA, the “PBM E-score” value was -0.23. As for AACTCTGG, the figure is -0.119; as for ACCCGCCC, 0.11.

Consider AACGACTT, for which the “PBM E-score” value is -0.108.

Regarding CTTAGAAG, the “PBM E-score” value was -0.125.

AAACGTTG: the “PBM E-score” value is -0.184. As for CCCGGGTA, the figure is 0.283.

As for GACTCCTA, the “PBM E-score” value was -0.261. AGCGTATG: the “PBM E-score” value was -0.105. Turning to AGCATCGC, the “PBM E-score” value is -0.126. On to CATTCTAC, for which the “PBM E-score” value was -0.0223.

As for CAGTCATG, the “PBM E-score” value is -0.162. As for CAATACTA, the figure is 0.0125. On to AGCAATAG, for which the “PBM E-score” value came out at 0.0329. As for GTTCCTCA, the figure is 0.145. Turning to CGGCTTAA, the “PBM E-score” value amounted to 0.393. Turning to ACCGTGCG, the “PBM E-score” value is 0.179. For the sequence AACATACA, the “PBM E-score” value turned out to be 0.122.

The record behind these values is the supplement of paper PMC3334620.
